{"sequences": {"note": "Sequences of proteins named here, by UniProt entry; tags and fusion partners are left off.", "UniProt Q99929": "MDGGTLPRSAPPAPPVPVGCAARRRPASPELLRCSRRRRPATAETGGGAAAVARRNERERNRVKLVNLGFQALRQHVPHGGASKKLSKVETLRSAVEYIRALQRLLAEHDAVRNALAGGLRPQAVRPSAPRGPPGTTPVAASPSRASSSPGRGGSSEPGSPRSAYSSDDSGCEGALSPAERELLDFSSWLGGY"}, "source": "paper PMC9844606", "binders": {"B1": {"name": "Dipeptidase 1 (DPEP1) (protein, UniProt P16444 17-385)", "chain": "DFFRDEAERIMRDSPVIDGHNDLPWQLLDMFNNRLQDERANLTTLAGTHTNIPKLRAGFVGGQFWSVYTPCDTQNKDAVRRTLEQMDVVHRMCRMYPETFLYVTSSAGIRQAFREGKVASLIGVEGGHSIDSSLGVLRALYQLGMRYLTLTHSCNTPWADNWLVDTGDSEPQSQGLSPFGQRVVKELNRLGVLIDLAHVSVATMKATLQLSRAPVIFSHSSAYSVCASRRNVPDDVLRLVKQTDSLVMVNFYNNYISCTNKANLSQVADHLDHIKEVAGARAVGFGGDFDGVPRVPEGLEDVSKYPDLIAELLRRNWTEAEVKGALADNLLRVFEAVEQASNLTQAPEEEPIPLDQLGGSCRTHYGYSS"}}, "target": "Achaete scute-like 2 (ASCL2) (human (endogenous in HCT116 and SW620)) (UniProt Q99929)", "test": "co-IP; reciprocal co-IP from HCT116 and SW620 cell lysates; DPEP1 or ASCL2 primary antibody 4 h at 4°C, protein A/G-agarose beads overnight at 4°C, three washes, western blotting", "note": "No constants are given. Whether binding was seen depends on the method and setting. Binding seen in cells or lysates may run through a third protein. Some results given as binding are weak or reduced against the parent protein; the word gives no strength.", "data": [{"binder": "B1", "values": [{"measurement": "binding", "value": "binds"}]}]}
